The results in this text go back to the supplement of paper PMC10849652.

Sequences of proteins named here, by UniProt entry; tags and fusion partners are left off. A change or cut given only in a name is not applied to a line headed by its entry.
UniProt P48634: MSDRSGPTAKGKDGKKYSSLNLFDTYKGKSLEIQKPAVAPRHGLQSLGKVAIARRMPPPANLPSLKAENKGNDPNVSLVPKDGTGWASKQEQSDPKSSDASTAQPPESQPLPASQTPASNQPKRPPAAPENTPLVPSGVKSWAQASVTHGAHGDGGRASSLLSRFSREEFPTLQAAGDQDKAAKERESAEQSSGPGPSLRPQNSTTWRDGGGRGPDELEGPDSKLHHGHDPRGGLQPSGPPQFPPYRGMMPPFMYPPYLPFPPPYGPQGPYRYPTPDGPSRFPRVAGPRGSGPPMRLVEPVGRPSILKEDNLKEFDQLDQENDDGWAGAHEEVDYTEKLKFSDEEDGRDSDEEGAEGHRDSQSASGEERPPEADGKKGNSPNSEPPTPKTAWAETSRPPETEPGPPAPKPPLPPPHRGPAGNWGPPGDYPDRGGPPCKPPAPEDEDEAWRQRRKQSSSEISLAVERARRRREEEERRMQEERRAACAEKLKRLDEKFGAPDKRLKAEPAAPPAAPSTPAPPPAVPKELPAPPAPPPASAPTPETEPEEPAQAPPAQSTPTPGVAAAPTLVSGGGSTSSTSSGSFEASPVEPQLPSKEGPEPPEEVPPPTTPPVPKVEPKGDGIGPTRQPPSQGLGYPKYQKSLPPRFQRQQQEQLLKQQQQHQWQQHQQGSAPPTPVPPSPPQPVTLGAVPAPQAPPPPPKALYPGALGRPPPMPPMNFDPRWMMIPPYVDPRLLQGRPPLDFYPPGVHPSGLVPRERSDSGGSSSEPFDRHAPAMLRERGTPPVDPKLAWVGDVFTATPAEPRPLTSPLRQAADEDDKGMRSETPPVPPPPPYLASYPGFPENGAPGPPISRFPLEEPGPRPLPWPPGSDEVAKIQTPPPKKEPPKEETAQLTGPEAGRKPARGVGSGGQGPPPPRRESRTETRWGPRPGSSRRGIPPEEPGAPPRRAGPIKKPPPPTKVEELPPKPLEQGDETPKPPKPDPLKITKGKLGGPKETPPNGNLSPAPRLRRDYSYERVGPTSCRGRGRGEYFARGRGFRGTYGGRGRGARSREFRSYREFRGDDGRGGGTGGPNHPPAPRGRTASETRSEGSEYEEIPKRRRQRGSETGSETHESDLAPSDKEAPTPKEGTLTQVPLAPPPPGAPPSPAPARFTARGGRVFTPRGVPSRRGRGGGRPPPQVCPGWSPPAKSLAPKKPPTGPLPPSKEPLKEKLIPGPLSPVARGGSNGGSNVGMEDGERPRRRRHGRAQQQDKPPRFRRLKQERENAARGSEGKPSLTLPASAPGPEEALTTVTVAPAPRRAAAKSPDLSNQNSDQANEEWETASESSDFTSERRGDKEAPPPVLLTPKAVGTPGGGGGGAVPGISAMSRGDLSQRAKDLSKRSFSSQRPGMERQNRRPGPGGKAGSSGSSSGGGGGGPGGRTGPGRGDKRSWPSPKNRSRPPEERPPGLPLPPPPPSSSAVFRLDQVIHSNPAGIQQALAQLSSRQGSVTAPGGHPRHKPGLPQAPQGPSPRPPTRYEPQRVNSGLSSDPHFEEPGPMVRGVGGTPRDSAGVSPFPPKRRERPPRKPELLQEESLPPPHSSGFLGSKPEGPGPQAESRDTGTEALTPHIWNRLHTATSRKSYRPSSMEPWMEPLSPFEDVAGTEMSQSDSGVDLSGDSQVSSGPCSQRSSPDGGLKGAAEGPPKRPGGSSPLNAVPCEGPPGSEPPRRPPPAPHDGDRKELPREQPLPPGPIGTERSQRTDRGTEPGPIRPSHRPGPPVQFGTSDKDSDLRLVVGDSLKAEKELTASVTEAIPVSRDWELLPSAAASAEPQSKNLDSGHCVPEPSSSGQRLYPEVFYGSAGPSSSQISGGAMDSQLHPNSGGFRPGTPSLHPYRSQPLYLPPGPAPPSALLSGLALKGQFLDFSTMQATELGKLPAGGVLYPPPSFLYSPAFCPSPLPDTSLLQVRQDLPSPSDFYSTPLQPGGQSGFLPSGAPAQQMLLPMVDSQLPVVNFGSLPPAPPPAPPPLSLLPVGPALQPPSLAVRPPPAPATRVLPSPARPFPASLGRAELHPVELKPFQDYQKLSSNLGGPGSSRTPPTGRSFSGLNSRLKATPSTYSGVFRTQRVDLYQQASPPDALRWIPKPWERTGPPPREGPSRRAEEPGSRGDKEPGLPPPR
UniProt Q06830: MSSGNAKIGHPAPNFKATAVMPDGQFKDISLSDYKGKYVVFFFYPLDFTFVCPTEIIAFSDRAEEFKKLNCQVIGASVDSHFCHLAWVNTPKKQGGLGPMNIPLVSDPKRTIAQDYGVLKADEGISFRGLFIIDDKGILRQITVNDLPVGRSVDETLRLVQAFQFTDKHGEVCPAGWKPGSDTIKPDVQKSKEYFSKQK
UniProt Q9UGJ0: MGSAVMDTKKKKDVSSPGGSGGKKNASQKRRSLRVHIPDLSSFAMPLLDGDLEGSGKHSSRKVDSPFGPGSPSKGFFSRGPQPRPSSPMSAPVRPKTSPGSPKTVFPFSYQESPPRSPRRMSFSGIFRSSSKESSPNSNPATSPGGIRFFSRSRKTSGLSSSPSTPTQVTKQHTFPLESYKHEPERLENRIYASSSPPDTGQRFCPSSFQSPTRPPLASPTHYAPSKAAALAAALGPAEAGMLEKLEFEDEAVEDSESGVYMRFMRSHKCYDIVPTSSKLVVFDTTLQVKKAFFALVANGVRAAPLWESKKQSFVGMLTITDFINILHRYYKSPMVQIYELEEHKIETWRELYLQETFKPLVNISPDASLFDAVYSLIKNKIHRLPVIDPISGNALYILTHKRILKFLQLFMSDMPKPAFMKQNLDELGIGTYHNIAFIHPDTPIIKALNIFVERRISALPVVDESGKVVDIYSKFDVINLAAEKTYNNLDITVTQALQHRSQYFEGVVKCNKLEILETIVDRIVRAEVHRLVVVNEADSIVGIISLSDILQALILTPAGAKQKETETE
UniProt P49593: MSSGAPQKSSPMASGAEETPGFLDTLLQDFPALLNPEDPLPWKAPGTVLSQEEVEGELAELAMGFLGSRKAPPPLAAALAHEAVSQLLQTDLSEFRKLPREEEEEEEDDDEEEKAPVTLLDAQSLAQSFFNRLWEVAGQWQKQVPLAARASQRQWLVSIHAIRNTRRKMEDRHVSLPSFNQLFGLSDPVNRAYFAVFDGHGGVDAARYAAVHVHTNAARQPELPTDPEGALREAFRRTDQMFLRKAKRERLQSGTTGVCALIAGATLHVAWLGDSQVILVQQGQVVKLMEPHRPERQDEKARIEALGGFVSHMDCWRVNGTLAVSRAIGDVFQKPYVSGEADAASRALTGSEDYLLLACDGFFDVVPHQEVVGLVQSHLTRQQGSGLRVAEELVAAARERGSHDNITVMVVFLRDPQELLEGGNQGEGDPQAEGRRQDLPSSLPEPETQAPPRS
UniProt Q9NY27: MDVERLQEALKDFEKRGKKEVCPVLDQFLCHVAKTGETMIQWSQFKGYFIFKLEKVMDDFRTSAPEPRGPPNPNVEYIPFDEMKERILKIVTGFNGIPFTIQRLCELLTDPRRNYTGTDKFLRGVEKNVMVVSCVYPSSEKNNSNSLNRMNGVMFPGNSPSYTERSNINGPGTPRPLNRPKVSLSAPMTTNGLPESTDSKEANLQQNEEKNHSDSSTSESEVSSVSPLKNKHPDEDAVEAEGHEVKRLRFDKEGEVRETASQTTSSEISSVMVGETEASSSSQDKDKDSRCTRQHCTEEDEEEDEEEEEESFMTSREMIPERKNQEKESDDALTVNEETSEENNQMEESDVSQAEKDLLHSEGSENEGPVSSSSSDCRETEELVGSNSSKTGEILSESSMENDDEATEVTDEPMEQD
UniProt P30154, whole entry, looked up: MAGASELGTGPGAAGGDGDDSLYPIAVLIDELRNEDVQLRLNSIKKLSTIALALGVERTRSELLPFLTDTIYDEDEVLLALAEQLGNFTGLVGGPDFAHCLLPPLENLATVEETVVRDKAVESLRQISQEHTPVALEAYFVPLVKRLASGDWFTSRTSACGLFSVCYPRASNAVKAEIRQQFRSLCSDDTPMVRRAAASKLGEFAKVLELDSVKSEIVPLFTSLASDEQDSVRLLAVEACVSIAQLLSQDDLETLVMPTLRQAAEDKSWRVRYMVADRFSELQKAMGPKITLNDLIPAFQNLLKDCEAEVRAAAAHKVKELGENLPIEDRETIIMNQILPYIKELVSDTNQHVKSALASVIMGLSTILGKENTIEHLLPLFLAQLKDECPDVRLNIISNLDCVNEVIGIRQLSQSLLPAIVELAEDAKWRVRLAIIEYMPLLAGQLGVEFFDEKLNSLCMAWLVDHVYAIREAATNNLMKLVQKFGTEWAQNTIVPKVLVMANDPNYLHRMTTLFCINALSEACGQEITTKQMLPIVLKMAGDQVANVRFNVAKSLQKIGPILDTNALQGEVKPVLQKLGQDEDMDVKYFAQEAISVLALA
UniProt Q96C90: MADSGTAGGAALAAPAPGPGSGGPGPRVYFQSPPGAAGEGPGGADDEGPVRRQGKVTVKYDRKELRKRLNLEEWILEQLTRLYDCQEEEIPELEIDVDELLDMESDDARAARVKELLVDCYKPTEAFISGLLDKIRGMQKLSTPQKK
UniProt Q96SB3: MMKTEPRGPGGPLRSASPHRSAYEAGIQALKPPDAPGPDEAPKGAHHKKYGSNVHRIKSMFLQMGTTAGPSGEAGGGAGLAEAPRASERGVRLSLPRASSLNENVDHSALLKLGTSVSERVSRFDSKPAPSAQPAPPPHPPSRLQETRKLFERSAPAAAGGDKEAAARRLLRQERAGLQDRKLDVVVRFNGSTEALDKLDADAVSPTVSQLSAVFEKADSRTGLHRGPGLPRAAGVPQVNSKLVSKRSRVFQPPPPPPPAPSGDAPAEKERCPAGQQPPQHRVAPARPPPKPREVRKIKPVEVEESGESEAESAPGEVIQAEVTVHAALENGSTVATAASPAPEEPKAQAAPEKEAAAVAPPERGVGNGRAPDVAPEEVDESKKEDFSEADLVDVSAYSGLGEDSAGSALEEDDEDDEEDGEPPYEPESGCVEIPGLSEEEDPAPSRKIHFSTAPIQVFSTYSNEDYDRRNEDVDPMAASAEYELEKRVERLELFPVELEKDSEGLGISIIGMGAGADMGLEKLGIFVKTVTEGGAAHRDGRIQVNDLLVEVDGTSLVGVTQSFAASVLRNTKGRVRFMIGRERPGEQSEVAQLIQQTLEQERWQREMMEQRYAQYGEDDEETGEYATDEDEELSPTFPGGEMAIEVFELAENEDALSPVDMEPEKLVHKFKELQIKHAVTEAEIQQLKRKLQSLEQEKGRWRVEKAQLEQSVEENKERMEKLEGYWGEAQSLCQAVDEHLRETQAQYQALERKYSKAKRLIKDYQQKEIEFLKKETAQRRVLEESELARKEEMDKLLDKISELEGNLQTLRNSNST
UniProt Q5H9R7: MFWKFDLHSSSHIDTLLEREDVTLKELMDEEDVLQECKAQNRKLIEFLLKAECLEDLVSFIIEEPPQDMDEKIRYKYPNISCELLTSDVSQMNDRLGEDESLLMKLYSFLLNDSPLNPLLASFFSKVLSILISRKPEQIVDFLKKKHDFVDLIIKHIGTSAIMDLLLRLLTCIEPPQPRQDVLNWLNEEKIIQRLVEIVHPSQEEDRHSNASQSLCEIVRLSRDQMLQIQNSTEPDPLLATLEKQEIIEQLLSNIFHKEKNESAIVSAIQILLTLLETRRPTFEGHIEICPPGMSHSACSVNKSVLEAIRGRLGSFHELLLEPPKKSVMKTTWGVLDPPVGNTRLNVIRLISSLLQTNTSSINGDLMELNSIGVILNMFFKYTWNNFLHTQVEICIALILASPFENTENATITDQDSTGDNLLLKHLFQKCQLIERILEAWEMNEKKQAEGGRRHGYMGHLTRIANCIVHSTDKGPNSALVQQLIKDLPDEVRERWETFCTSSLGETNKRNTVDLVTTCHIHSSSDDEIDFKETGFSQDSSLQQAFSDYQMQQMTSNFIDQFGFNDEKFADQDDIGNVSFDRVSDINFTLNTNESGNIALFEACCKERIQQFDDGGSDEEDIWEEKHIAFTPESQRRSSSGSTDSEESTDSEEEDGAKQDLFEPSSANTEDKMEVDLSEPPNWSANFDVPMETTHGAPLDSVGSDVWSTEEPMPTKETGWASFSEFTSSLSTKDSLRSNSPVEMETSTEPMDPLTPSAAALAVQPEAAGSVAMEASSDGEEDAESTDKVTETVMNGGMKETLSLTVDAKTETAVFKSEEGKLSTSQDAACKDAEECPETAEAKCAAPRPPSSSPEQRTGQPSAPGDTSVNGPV
UniProt P30048: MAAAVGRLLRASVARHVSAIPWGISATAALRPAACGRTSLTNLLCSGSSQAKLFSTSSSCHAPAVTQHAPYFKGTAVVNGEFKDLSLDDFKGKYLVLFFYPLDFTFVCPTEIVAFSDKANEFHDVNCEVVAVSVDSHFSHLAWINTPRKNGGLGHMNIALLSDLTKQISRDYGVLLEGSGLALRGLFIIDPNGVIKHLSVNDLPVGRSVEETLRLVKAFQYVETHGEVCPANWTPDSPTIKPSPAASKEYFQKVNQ

The list shows a part of the results.

Compound in the assay: c1cn2cc(-c3ccc4cn[nH]c4c3)nc(Nc3ccc(N4CCOCC4)cc3)c2n1 [entospletinib]
As to the kind of experiment: log2 fold change, soluble protein after heating vs DMSO (PISA); higher = thermal stabilisation; K562 cells, 10 uM, 30 min; active = over 0.2 and 3.5 SD of the protein, either way, in both replicates (recomputed). The procedure, abridged: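 K562 cells at 2×10^6 cells/mL were given 10 μM compound for 30 min. Aliquots then went through 3 min of heating across 48°C-58°C, were pooled, and were extracted in PBS with 0.5% NP-40 at 4°C, and the supernatant after 21,000xg for 90 min was quantified by TMTpro 16plex LC-MS/MS with channel sums equalised. Thermal stability relative to control samples, from duplicates, is given as log2 fold change.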
For the target PRRC2A (UniProt P48634), the log2 fold change was inactive: 0.076.

With PPP2R2D (UniProt Q66LE6), the log2 fold change is inactive: 0.097.

Consider PPP1R2 (UniProt P41236), for which the log2 fold change is inactive: 0.036.

For the target PPP4C (UniProt P60510), the log2 fold change is inactive: 0.022.

As for PROS1 (UniProt P07225), the log2 fold change was inactive: 0.047.

Consider PRDX1 (UniProt Q06830), for which the log2 fold change is inactive: 0.02.

In the case of PPM1E (UniProt Q8WY54), the log2 fold change was inactive: -0.025.

As to PPP3CA (UniProt Q08209), the log2 fold change was inactive: -0.058.

Take PPP1R10 (UniProt Q96QC0): the log2 fold change is inactive: 0.107.

PRKAG2 (UniProt Q9UGJ0): the log2 fold change was inactive: -0.064.

On to PPP1R18 (UniProt Q6NYC8), for which the log2 fold change was inactive: -0.037.

Consider PPM1F (UniProt P49593), for which the log2 fold change was inactive: 0.004.

On to PPP4R2 (UniProt Q9NY27), for which the log2 fold change was inactive: 0.019.

Turning to PPP2R1B isoform 2 (UniProt P30154), the log2 fold change was inactive: -0.011.

With PROSER3, A0A2R8Y8D9, the log2 fold change is inactive: -0.193.

Consider PRSS21 (UniProt Q9Y6M0), for which the log2 fold change is inactive: 0.019.

PRDX5 (UniProt P30044): the log2 fold change was inactive: 0.02.

Consider PPP1R14B (UniProt Q96C90), for which the log2 fold change is inactive: -0.029.

PRKCSH isoform 2 (UniProt P14314): the log2 fold change was inactive: -0.083.

Take PPP1R9B (UniProt Q96SB3): the log2 fold change is inactive: 0.128.

In the case of PQBP1 (UniProt O60828), the log2 fold change is inactive: -0.006.

In the case of PPP6R3 isoform 5 (UniProt Q5H9R7), the log2 fold change is inactive: 0.024.

Consider PRDX3 (UniProt P30048), for which the log2 fold change is inactive: 0.044.

PRCC (UniProt Q92733): the log2 fold change is inactive: 0.

As for PRKRA (UniProt O75569), the log2 fold change is inactive: 0.186.

Take PROSER2 (UniProt Q86WR7): the log2 fold change is inactive: 0.015.

On to PPP1R7 (UniProt Q15435), for which the log2 fold change was inactive: 0.043.
